Experimental findings from PMC11735090 are described below.

By UniProt entry, the sequences of proteins in these tests, tags left out.
UniProt Q501J6: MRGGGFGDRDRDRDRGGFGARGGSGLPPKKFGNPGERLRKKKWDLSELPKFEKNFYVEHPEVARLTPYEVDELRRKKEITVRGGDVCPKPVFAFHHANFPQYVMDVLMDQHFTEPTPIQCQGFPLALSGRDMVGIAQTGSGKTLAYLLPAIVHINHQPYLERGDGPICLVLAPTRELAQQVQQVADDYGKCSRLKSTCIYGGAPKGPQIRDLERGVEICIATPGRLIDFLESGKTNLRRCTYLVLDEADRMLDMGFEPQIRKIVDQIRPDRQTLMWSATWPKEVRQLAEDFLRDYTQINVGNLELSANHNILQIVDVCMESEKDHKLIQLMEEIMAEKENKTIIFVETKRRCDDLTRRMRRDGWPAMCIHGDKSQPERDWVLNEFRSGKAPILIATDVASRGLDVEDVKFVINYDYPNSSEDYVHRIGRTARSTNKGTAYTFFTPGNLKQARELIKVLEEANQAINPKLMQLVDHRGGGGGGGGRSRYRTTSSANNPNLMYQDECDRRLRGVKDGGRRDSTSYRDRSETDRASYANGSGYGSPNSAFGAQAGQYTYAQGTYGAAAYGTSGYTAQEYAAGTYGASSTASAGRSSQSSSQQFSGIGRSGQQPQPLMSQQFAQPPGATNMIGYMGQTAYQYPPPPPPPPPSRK

These are yes or no findings as the source states them, for the method shown. In cells and extracts the contact can be indirect. These calls come from enrichment with a bait or labelling near it, and not all partners need be listed.

The target of this experiment is T1, MEKK1 (gene product of Map3k1), full-length wild type (mouse) (UniProt P53349).
T1 sequence: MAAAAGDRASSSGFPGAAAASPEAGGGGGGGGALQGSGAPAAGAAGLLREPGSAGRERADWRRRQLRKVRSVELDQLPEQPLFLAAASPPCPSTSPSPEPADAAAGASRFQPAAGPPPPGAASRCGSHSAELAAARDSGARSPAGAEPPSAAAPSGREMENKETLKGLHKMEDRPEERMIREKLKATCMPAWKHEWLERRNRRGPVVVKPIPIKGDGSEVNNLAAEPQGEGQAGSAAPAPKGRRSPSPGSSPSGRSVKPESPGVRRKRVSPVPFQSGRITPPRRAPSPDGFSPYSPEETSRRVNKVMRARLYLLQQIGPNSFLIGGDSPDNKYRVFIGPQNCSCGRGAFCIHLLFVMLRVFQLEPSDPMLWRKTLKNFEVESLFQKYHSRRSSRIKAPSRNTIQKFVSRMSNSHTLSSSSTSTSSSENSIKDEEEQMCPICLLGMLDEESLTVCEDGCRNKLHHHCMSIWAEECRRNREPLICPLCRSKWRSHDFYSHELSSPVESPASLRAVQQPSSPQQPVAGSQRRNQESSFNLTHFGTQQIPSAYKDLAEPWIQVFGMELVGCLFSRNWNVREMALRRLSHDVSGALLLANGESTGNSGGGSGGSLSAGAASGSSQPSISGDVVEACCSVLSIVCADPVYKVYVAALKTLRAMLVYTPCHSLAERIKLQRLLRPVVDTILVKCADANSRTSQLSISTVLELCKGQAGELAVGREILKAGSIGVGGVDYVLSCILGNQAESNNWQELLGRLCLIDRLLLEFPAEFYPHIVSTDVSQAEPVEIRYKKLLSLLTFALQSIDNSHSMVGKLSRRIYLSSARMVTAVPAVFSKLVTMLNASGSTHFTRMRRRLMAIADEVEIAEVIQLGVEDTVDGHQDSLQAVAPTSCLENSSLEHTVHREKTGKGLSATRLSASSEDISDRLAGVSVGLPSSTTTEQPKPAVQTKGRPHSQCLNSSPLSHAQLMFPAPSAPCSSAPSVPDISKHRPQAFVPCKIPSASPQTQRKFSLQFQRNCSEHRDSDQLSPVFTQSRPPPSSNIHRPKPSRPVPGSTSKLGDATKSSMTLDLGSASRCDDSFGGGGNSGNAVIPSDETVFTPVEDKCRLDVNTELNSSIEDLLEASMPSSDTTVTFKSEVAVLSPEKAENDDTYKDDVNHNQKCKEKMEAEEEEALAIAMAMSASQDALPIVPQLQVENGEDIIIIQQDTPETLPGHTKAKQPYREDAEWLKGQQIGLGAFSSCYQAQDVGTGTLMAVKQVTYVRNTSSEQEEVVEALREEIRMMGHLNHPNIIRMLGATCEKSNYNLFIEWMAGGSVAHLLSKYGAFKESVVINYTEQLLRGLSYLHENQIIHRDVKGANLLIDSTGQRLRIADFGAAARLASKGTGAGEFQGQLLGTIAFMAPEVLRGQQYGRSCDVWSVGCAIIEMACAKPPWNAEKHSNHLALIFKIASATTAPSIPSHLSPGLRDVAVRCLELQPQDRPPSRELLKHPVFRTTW
Briefly: affinity purification with mass spectrometry; IP with FLAG antibodies from lysates of 67NR-OVA cells with varying Map3k1 status, after 24 h coculture with OT-I splenocytes; in-gel digestion and mass spectrometry.

“DEAD box helicase 17 (DDX17) (from UniProt Q501J6 1-650)”: the binding entry is recorded as “binds”.
